PubChem BioAssay AID493246 | Drosophila RNAi Screening Center, 2011

Purpose: 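Genome-wide search for dsRNAs that reduce cell number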 (primary screen)
System: Drosophila Kc and S2R+ cells
Reagent: long dsRNA against Drosophila genes
Read-out: 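Cell number per well after knock-down, printed as raw plate values; calls were based on per-plate z-scores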
Scale: Kc cell number and S2R+ cell number: higher = more cells remaining
Rule for the call: 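Active when the per-plate z-score of cell number is 3 or more in the direction of fewer cells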
The screen tested about 21,000 reagents; shown is an unselected part of those that have a named target and a result. Over the whole deposit, 429 (2%) are marked active. 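Values are raw and not normalised between plates; calls rest on per-plate z-scores that were not deposited.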 Reagent sequences are not shown. Not stated in the record: the amount of reagent, the time to read-out.

For CG14641 (GeneID 40529), the entry reads Kc cell number, rep 1 = 1.65e6; Kc cell number, rep 2 = 1.70e6; S2R+ cell number, rep 1 = 1.31e6; S2R+ cell number, rep 2 = 1.43e6; inactive.
Knock-down of CG16964 (GeneID 34605) gave: Kc cell number, rep 1 = 1.63e6; Kc cell number, rep 2 = 1.66e6; S2R+ cell number, rep 1 = 1.27e6; S2R+ cell number, rep 2 = 1.46e6; inactive.
With knock-down of CG13728 (GeneID 39937), the record shows Kc cell number, rep 1 = 1.57e6; Kc cell number, rep 2 = 1.56e6; S2R+ cell number, rep 1 = 1.29e6; S2R+ cell number, rep 2 = 1.42e6; inactive.
CG6833 (GeneID 39559) showed Kc cell number, rep 1 = 1.51e6; Kc cell number, rep 2 = 1.56e6; S2R+ cell number, rep 1 = 1.18e6; S2R+ cell number, rep 2 = 1.26e6; inactive.
CG32563 (GeneID 32706) showed Kc cell number, rep 1 = 1.53e6; Kc cell number, rep 2 = 1.57e6; S2R+ cell number, rep 1 = 1.16e6; S2R+ cell number, rep 2 = 1.27e6; inactive.
Mvd (GeneID 32520) showed Kc cell number, rep 1 = 5.85e5; S2R+ cell number, rep 1 = 9.43e5; inactive.
CG11857 (GeneID 43042) showed Kc cell number, rep 1 = 1.30e6; Kc cell number, rep 2 = 1.28e6; S2R+ cell number, rep 1 = 9.98e5; S2R+ cell number, rep 2 = 1.04e6; inactive.
For Hex-C (GeneID 44008), the values are Kc cell number, rep 1 = 1.52e6; Kc cell number, rep 2 = 1.54e6; S2R+ cell number, rep 1 = 1.06e6; S2R+ cell number, rep 2 = 1.27e6; inactive.
magu (GeneID 36048) gave Kc cell number, rep 1 = 1.26e6; Kc cell number, rep 2 = 1.35e6; S2R+ cell number, rep 1 = 1.16e6; S2R+ cell number, rep 2 = 1.22e6; inactive.
With knock-down of Pgant7 (GeneID 32836) the results were Kc cell number, rep 1 = 1.51e6; Kc cell number, rep 2 = 1.53e6; S2R+ cell number, rep 1 = 1.12e6; S2R+ cell number, rep 2 = 1.26e6; inactive.
For Ddx56 (GeneID 33118), the values are Kc cell number, rep 1 = 1.49e6; Kc cell number, rep 2 = 1.45e6; S2R+ cell number, rep 1 = 9.24e5; S2R+ cell number, rep 2 = 1.04e6; inactive.
Against Alp13 (GeneID 41236), the values are Kc cell number, rep 1 = 1.63e6; Kc cell number, rep 2 = 1.53e6; S2R+ cell number, rep 1 = 1.24e6; S2R+ cell number, rep 2 = 1.36e6; inactive.
With knock-down of CG6055 (GeneID 34027), the record shows Kc cell number, rep 1 = 1.64e6; Kc cell number, rep 2 = 1.60e6; S2R+ cell number, rep 1 = 1.28e6; S2R+ cell number, rep 2 = 1.50e6; inactive.
For RpS24 (GeneID 37589) the deposit lists Kc cell number, rep 1 = 1.14e6; Kc cell number, rep 2 = 1.14e6; S2R+ cell number, rep 1 = 8.66e5; S2R+ cell number, rep 2 = 1.02e6; active.
Silencing of Ilp1 (GeneID 39149) came out at: Kc cell number, rep 1 = 1.38e6; Kc cell number, rep 2 = 1.53e6; S2R+ cell number, rep 1 = 1.21e6; S2R+ cell number, rep 2 = 1.27e6; inactive.
Against CG15005 (GeneID 38506) the deposit lists Kc cell number, rep 1 = 1.46e6; Kc cell number, rep 2 = 1.33e6; S2R+ cell number, rep 1 = 1.14e6; S2R+ cell number, rep 2 = 1.33e6; inactive.
For Fkbp39 (GeneID 41860) the deposit lists Kc cell number, rep 1 = 1.61e6; Kc cell number, rep 2 = 1.71e6; S2R+ cell number, rep 1 = 1.25e6; S2R+ cell number, rep 2 = 1.30e6; inactive.
For VhaM9.7-b (GeneID 40389), the entry reads Kc cell number, rep 1 = 1.39e6; Kc cell number, rep 2 = 1.46e6; S2R+ cell number, rep 1 = 1.27e6; S2R+ cell number, rep 2 = 1.31e6; inactive.
Against Alp11 (GeneID 32496) the deposit lists Kc cell number, rep 1 = 1.46e6; Kc cell number, rep 2 = 1.47e6; S2R+ cell number, rep 1 = 1.07e6; S2R+ cell number, rep 2 = 1.13e6; inactive.
After knock-down of rempA (GeneID 33230), the record shows Kc cell number, rep 1 = 1.45e6; Kc cell number, rep 2 = 1.50e6; S2R+ cell number, rep 1 = 1.04e6; S2R+ cell number, rep 2 = 1.21e6; inactive.
Silencing of CG5877 (GeneID 32455) resulted in: Kc cell number, rep 1 = 5.30e5; S2R+ cell number, rep 1 = 8.60e5; inactive.

Reagents listed so far with an active call:
RpS24 (GeneID 37589) → Kc cell number, rep 1: 1.14e6; Kc cell number, rep 2: 1.14e6; S2R+ cell number, rep 1: 8.66e5; S2R+ cell number, rep 2: 1.02e6; activity call: active
